Measured values taken from the supplement of paper PMC6418307.
Single values of this set are uncertain.

Test system: primary mouse cortical neurons
Test: cell health score (luciferase spike-in reads / total reads per well) (fraction); higher = fewer cellular reads, worse cell health / toxicity
Settings: treatment time 24 h
[1] = 0.01 µM, sex of neuron culture: Female
[2] = 0.01 µM, sex of neuron culture: Male
[3] = 0.1 µM, sex of neuron culture: Female
[4] = 0.1 µM, sex of neuron culture: Male
[5] = 1 µM, sex of neuron culture: Female
[6] = 1 µM, sex of neuron culture: Male
[7] = 10 µM, sex of neuron culture: Female
[8] = 10 µM, sex of neuron culture: Male

S=C([S-])NCCNC(=S)[S-].S=C([S-])NCCNC(=S)[S-].[Mn+2].[Zn+2] [Mancozeb]
cell health score [1]: 0.000584
cell health score [2]: 0.000801
cell health score [3]: 0.000738
cell health score [4]: 0.000656
cell health score [5]: 0.000854
cell health score [6]: 0.000594
cell health score [7]: 0.000768
cell health score [8]: 0.000579

CNC(=O)Oc1cccc2c1OC(C)(C)O2 [Bendiocarb]
cell health score [1]: 0.00051
cell health score [2]: 0.000724
cell health score [3]: 0.000747
cell health score [4]: 0.000851
cell health score [5]: 0.000868
cell health score [6]: 0.00055
cell health score [7]: 0.000809
cell health score [8]: 0.000624

CCCN(CCC)c1c([N+](=O)[O-])cc(S(N)(=O)=O)cc1[N+](=O)[O-] [Oryzalin]
cell health score [1]: 0.000524
cell health score [2]: 0.000571
cell health score [3]: 0.000841
cell health score [4]: 0.000751
cell health score [5]: 0.000731
cell health score [6]: 0.000464
cell health score [7]: 0.000933
cell health score [8]: 0.000546

CCCOC(=O)c1ccc(C(=O)OCCC)nc1 [Dipropyl pyridine-2,5-dicarboxylate]
cell health score [1]: 0.000627
cell health score [2]: 0.000655
cell health score [3]: 0.000624
cell health score [4]: 0.000783
cell health score [5]: 0.000759
cell health score [6]: 0.000538
cell health score [7]: 0.000978
cell health score [8]: 0.000687

CCOP(=S)(OCC)SCCSCC [Disulfoton]
cell health score [1]: 0.000524
cell health score [2]: 0.000728
cell health score [3]: 0.000868
cell health score [4]: 0.000735
cell health score [5]: 0.000895
cell health score [6]: 0.000659
cell health score [7]: 0.000968
cell health score [8]: 0.000451

Oc1ccc(C(c2ccc(O)cc2)C(Cl)(Cl)Cl)cc1 [2,2-Bis(4-hydroxyphenyl)-1,1,1-trichloroethane]
cell health score [1]: 0.000445
cell health score [2]: 0.00124
cell health score [3]: 0.00135
cell health score [4]: 0.000708
cell health score [5]: 0.000474
cell health score [6]: 0.000581
cell health score [7]: 0.00195
cell health score [8]: 0.000388

CC1=C(C(=O)Nc2ccccc2)SCCO1 [Carboxin]
cell health score [1]: 0.000448
cell health score [2]: 0.000851
cell health score [3]: 0.000925
cell health score [4]: 0.000866
cell health score [5]: 0.000809
cell health score [6]: 0.000485
cell health score [7]: 0.00106
cell health score [8]: 0.000742

O=C(CCCCCCC(=O)Nc1ccccc1)NO [Vorinostat (SAHA)]
cell health score [1]: 0.000292
cell health score [2]: 0.000531
cell health score [3]: 0.00062
cell health score [4]: 0.000701
cell health score [5]: 0.000769
cell health score [6]: 0.000933
cell health score [7]: 0.000792
cell health score [8]: 0.00204

O=[N+]([O-])[O-].O=[N+]([O-])[O-].[Pb+2] [Lead (II) Nitrate]
cell health score [1]: 0.000475
cell health score [2]: 0.000744
cell health score [3]: 0.000654
cell health score [4]: 0.00162
cell health score [5]: 0.000703
cell health score [6]: 0.000681
cell health score [7]: 0.000491
cell health score [8]: 0.000507

N#Cc1c(Cl)cccc1Cl [Dichlobenil]
cell health score [1]: 0.000683
cell health score [2]: 0.000806
cell health score [3]: 0.00143
cell health score [4]: 0.000863
cell health score [5]: 0.00105
cell health score [6]: 0.000703
cell health score [7]: 0.00121
cell health score [8]: 0.000404

CC1(C)CC/C(=C\c2ccc(Cl)cc2)C1(O)Cn1cncn1 (stereo unspecified) [Triticonazole]
cell health score [1]: 0.000705
cell health score [2]: 0.000797
cell health score [3]: 0.00104
cell health score [4]: 0.000858
cell health score [5]: 0.00082
cell health score [6]: 0.000683
cell health score [7]: 0.000908
cell health score [8]: 0.000908

CCCCOCCOCCOCc1cc2c(cc1CCC)OCO2 [Piperonyl butoxide]
cell health score [1]: 0.000564
cell health score [2]: 0.000773
cell health score [3]: 0.00173
cell health score [4]: 0.00062
cell health score [5]: 0.000745
cell health score [6]: 0.000701
cell health score [7]: 0.000839
cell health score [8]: 0.00067

C=CCOC(=O)C(C)(C)OC(=O)c1cc(-n2c(=O)cc(C(F)(F)F)n(C)c2=O)ccc1Cl [Butafenacil]
cell health score [1]: 0.000533
cell health score [2]: 0.000931
cell health score [3]: 0.00116
cell health score [4]: 0.000835
cell health score [5]: 0.000998
cell health score [6]: 0.000441
cell health score [7]: 0.000679
cell health score [8]: 0.000681

CCC/C(=N\OCC)C1=C(O)CC(CC(C)SCC)CC1=O (stereo unspecified) [Sethoxydim]
cell health score [1]: 0.000588
cell health score [2]: 0.00102
cell health score [3]: 0.000848
cell health score [4]: 0.000954
cell health score [5]: 0.000832
cell health score [6]: 0.000627
cell health score [7]: 0.00114
cell health score [8]: 0.000623

O=C(Nc1ccccc1)Nc1ccnc(Cl)c1 [Forchlorfenuron]
cell health score [1]: 0.000895
cell health score [2]: 0.000808
cell health score [3]: 0.000847
cell health score [4]: 0.000817
cell health score [5]: 0.000717
cell health score [6]: 0.000479
cell health score [7]: 0.000899
cell health score [8]: 0.000532

CCc1nn(C)c(C(=O)NCc2ccc(C(C)(C)C)cc2)c1Cl [Tebufenpyrad]
cell health score [1]: 0.00158
cell health score [2]: 0.00433
cell health score [3]: 0.00947
cell health score [4]: 0.00374
cell health score [5]: 0.0106
cell health score [6]: 0.00614
cell health score [7]: 0.00641
cell health score [8]: 0.00435

COc1cc2c3c(n(CCCn4ccnc4)c(=O)c2cc1OC)-c1cc2c(cc1C3=O)OCO2
cell health score [1]: 0.00324
cell health score [2]: 0.00204
cell health score [3]: 0.002
cell health score [4]: 0.00166
cell health score [5]: 0.00156
cell health score [6]: 0.00159
cell health score [7]: 0.00234
cell health score [8]: 0.0018

S=C1NCCN1 [Ethylene thiourea]
cell health score [1]: 0.000552
cell health score [2]: 0.000876
cell health score [3]: 0.000519
cell health score [4]: 0.000899
cell health score [5]: 0.000885
cell health score [6]: 0.000619
cell health score [7]: 0.00111
cell health score [8]: 0.00105

Oc1cc(Cl)ccc1Oc1ccc(Cl)cc1Cl [Triclosan]
cell health score [1]: 0.000559
cell health score [2]: 0.000742
cell health score [3]: 0.000859
cell health score [4]: 0.00107
cell health score [5]: 0.0008
cell health score [6]: 0.000556
cell health score [7]: 0.00144
cell health score [8]: 0.000498

[N-]=[N+]=[N-] [Sodium Azide]
cell health score [1]: 0.000537
cell health score [2]: 0.000777
cell health score [3]: 0.00116
cell health score [4]: 0.000877
cell health score [5]: 0.00126
cell health score [6]: 0.000948
cell health score [7]: 0.00086
cell health score [8]: 0.00105

CCOC(=O)CC(SP(=O)(OC)OC)C(=O)OCC (stereo unspecified) [Malaoxon]
cell health score [1]: 0.000463
cell health score [2]: 0.000951
cell health score [3]: 0.00169
cell health score [4]: 0.000755
cell health score [5]: 0.000856
cell health score [6]: 0.000708
cell health score [7]: 0.00092
cell health score [8]: 0.00049

CCN(CC)C(=O)c1cccc(C)c1 [DEET]
cell health score [1]: 0.00052
cell health score [2]: 0.000833
cell health score [3]: 0.000817
cell health score [4]: 0.000696
cell health score [5]: 0.000686
cell health score [6]: 0.000753
cell health score [7]: 0.00113
cell health score [8]: 0.00124
